Data published in the supplement of paper PMC10849652.
Some of the results follow.

Protein sequences, listed by entry. Tags and fused reporters are not part of them. Lines headed by an entry give the natural chain unless they say otherwise; changes in a name come on top.
UniProt Q5SSJ5: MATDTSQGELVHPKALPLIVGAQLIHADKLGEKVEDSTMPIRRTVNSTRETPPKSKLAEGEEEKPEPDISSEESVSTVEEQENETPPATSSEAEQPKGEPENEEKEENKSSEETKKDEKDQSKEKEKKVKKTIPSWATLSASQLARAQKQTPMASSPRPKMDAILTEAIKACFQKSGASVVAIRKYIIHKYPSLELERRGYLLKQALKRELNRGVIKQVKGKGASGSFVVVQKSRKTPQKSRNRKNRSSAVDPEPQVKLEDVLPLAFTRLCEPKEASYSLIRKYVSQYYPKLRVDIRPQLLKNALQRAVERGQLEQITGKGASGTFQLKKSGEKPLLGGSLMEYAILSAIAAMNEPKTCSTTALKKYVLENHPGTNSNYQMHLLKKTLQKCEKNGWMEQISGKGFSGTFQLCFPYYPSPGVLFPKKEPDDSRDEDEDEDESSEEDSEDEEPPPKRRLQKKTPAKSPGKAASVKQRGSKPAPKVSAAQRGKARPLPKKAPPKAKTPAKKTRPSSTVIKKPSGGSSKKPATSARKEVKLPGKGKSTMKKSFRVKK
UniProt Q7LGA3: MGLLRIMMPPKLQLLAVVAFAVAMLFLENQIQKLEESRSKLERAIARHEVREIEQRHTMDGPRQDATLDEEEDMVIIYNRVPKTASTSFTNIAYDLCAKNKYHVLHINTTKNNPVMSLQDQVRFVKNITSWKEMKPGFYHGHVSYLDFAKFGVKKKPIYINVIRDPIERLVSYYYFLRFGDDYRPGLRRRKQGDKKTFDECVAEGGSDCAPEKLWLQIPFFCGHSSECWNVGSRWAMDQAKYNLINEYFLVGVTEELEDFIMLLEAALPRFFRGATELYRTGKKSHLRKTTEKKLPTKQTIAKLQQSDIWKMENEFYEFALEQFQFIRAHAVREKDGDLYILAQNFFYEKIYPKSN
UniProt Q3SXM5: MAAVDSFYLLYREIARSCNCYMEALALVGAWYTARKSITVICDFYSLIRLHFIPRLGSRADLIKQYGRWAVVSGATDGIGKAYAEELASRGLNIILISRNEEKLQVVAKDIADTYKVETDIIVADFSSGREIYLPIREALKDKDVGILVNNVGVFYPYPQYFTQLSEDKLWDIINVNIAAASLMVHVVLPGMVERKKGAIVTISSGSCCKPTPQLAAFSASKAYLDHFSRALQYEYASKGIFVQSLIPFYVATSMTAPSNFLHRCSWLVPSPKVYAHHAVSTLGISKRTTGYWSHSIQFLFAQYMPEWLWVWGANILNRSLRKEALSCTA
UniProt Q9P2D3: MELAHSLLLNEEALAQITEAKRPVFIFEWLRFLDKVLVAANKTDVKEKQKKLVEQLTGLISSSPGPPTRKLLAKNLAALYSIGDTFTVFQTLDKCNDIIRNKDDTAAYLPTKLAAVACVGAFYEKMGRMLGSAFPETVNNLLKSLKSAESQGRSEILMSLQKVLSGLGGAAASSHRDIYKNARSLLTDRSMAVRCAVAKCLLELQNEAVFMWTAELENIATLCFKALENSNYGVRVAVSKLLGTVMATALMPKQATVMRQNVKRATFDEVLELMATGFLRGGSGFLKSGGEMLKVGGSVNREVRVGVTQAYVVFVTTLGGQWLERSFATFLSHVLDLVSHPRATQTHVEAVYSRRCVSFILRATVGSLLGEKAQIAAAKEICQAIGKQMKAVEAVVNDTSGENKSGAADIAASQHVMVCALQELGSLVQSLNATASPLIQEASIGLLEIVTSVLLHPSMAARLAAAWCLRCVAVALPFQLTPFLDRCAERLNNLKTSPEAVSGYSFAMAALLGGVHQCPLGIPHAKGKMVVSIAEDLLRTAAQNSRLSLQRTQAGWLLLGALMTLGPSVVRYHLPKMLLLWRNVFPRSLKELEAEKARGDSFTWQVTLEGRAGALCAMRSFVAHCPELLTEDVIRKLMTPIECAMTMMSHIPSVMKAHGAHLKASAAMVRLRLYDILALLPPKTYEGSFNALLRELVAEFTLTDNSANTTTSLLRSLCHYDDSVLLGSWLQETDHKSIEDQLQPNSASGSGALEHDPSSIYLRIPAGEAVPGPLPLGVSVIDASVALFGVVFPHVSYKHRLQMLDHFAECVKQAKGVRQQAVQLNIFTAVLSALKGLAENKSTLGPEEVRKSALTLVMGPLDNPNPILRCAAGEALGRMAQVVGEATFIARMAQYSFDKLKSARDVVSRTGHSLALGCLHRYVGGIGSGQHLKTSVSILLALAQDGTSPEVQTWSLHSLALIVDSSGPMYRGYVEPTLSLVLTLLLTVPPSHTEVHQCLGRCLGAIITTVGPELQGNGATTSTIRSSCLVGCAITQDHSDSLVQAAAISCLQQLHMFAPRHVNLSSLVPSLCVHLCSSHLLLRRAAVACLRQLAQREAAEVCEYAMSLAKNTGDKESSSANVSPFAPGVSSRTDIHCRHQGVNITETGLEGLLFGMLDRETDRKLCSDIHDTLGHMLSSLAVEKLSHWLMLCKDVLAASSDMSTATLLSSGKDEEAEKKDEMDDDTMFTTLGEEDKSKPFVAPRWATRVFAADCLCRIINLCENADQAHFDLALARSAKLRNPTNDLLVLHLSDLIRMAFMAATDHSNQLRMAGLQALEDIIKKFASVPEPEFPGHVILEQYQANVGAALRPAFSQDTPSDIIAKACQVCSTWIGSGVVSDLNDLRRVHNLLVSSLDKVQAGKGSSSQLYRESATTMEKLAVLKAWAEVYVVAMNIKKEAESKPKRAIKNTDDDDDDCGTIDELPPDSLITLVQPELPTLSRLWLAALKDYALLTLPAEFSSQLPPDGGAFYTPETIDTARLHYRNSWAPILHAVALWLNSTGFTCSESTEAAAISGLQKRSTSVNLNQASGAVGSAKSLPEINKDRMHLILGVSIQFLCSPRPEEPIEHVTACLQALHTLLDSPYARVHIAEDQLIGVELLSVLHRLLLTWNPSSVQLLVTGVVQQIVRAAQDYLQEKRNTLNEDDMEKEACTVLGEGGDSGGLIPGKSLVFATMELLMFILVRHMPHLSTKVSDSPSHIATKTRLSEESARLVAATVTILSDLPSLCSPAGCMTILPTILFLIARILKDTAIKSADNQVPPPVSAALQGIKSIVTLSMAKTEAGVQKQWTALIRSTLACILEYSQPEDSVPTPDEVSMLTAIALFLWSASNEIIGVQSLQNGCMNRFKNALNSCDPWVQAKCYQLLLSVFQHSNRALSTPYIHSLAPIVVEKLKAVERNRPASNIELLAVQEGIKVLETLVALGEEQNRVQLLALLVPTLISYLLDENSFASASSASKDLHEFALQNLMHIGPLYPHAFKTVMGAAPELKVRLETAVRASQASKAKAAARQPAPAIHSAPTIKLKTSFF
UniProt Q86VS8: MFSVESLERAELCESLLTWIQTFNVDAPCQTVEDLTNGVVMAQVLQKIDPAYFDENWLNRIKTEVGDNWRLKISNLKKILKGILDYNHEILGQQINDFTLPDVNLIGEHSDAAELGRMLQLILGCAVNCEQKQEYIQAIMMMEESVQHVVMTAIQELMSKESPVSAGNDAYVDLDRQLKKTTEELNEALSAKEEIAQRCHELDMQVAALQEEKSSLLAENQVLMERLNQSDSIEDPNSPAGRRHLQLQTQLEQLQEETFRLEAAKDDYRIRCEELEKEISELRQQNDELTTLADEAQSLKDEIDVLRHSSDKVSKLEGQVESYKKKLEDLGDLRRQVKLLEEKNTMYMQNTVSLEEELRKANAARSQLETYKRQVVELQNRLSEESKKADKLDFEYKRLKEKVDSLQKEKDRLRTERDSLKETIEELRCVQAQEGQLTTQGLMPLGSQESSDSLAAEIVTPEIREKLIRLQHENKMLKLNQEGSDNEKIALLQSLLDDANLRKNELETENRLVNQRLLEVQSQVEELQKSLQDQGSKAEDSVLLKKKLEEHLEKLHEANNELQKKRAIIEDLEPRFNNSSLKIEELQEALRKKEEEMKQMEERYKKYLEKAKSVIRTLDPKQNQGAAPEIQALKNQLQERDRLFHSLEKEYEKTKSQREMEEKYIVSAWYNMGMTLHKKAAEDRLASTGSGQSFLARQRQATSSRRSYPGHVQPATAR
UniProt O94992, whole entry, looked up: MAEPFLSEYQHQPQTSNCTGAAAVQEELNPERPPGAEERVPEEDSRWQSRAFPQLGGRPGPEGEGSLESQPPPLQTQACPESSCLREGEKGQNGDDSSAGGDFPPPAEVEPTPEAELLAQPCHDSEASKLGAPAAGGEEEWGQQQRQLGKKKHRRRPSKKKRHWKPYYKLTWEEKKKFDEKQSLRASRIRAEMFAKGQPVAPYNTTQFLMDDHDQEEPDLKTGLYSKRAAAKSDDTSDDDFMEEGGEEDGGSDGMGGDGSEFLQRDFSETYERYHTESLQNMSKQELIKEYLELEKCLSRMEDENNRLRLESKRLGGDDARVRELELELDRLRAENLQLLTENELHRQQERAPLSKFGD
UniProt P08238, whole entry, looked up: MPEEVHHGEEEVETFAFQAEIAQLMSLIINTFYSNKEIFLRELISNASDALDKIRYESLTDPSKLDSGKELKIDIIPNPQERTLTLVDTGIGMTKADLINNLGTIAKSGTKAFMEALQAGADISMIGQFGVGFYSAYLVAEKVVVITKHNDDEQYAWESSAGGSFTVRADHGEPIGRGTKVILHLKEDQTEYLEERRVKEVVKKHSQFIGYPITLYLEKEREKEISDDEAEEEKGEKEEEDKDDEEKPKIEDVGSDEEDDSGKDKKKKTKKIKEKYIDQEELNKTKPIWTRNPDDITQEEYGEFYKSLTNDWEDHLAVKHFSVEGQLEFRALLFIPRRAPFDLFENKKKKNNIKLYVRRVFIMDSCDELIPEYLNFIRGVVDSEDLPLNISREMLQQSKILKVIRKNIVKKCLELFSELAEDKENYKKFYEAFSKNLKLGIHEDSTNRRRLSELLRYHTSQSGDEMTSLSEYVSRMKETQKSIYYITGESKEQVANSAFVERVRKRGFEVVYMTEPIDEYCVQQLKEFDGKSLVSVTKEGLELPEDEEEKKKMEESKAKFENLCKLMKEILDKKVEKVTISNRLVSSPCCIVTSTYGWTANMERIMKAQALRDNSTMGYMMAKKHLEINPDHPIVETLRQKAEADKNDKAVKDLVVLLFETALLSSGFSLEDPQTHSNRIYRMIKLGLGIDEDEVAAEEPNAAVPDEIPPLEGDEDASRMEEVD
UniProt P07910: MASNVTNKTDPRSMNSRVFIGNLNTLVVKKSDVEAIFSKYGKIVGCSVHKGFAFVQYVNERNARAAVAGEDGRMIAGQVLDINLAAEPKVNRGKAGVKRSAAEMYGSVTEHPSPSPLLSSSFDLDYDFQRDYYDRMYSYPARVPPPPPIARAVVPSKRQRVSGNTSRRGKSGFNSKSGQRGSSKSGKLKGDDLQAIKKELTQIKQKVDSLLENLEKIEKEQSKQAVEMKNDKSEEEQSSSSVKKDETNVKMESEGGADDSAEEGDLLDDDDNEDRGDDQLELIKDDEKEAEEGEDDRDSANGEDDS
UniProt Q14527: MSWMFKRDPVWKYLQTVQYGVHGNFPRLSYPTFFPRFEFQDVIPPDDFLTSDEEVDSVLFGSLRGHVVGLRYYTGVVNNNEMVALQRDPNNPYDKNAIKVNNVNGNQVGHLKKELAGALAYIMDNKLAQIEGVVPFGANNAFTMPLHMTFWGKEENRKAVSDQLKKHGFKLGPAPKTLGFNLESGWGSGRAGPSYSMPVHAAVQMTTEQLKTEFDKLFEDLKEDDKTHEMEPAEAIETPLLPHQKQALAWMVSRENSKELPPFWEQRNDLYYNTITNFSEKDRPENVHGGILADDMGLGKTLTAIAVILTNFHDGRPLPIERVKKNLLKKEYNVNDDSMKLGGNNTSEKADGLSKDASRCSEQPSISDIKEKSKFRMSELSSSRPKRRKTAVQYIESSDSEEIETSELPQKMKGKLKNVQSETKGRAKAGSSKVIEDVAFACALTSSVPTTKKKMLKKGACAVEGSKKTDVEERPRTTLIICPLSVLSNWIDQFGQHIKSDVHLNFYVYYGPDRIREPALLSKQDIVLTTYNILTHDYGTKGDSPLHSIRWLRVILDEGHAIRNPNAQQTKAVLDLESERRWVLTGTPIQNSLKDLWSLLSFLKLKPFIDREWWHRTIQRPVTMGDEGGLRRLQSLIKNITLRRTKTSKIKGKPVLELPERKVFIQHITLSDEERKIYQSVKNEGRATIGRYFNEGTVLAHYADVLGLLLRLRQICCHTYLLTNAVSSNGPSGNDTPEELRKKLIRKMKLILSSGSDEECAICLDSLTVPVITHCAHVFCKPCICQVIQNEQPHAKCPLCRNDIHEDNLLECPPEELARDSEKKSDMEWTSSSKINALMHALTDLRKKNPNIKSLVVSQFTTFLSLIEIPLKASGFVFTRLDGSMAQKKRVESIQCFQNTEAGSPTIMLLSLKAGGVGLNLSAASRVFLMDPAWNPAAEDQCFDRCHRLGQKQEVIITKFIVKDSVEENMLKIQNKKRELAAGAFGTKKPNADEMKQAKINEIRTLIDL

The targets below were run with Cc1sc2c(c1C)C(c1ccc(Cl)cc1)=N[C@@H](CC(=O)OC(C)(C)C)c1nnc(C)n1-2 (assay: log2 fold change, soluble protein after heating vs DMSO (PISA); higher = thermal stabilisation; K562 lysate, 10 uM; active = over 0.2 and 3.5 SD of the protein, either way, in both replicates (recomputed)).
In short: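 Soluble protein was defined as the supernatant remaining after 21,000xg for 90 min, following pooling of heated aliquots and adjustment to 0.5% NP-40 at 4°C. Before that, crude K562 extract at 1 mg/mL protein in PBS pH 7.4 with 1 mM MgCl2 was treated with 10 μM compound for 30 min and heated for 3 min across 48°C-58°C. Quantification used TMTpro 16plex LC-MS/MS with channel sums equalised, and values are log-two fold changes in thermal stability relative to solvent controls from duplicates.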

Q: Which log2 fold change does the source give for HIC2 (UniProt Q96JB3) here?
A: inactive: 0.037

Q: For HP1BP3 (UniProt Q5SSJ5), which log2 fold change is on record?
A: inactive: -0.078

Q: HSD17B4 (UniProt P51659) was tested. Which log2 fold change did it give?
A: inactive: 0.026

Q: For HS2ST1 (UniProt Q7LGA3), which log2 fold change is on record?
A: inactive: 0.042

Q: How did the log2 fold change turn out when HIBCH (UniProt Q6NVY1) was run?
A: inactive: 0.021

Q: HSDL1 (UniProt Q3SXM5) was tested. Which log2 fold change did it give?
A: inactive: -0.012

Q: HEATR5B (UniProt Q9P2D3) was tested. Which log2 fold change did it give?
A: inactive: 0.01

Q: HIP1R (UniProt O75146) was tested. Which log2 fold change did it give?
A: inactive: -0.011

Q: How did the log2 fold change turn out when HNRNPR isoform 2 (UniProt O43390) was run?
A: inactive: 0.039

Q: How did the log2 fold change turn out when HNRNPAB isoform 3 (UniProt Q99729) was run?
A: inactive: 0.01

Q: HSP90AA1 isoform 2 (UniProt P07900) was tested. Which log2 fold change did it give?
A: inactive: 0.002

Q: How did the log2 fold change turn out when HOMER1 (UniProt Q86YM7) was run?
A: inactive: 0

Q: For HNRNPH3 (UniProt P31942), which log2 fold change is on record?
A: inactive: 0.032

Q: With HSPA2 (UniProt P54652) as the target, how does the log2 fold change read?
A: inactive: -0.024

Q: HOOK3 (UniProt Q86VS8) was tested. Which log2 fold change did it give?
A: inactive: -0.011

Q: With HEXIM1 (UniProt O94992) as the target, how does the log2 fold change read?
A: inactive: -0.052

Q: With HSP90AB1 (UniProt P08238) as the target, how does the log2 fold change read?
A: inactive: -0.001

Q: For HNRNPC (UniProt P07910), which log2 fold change is on record?
A: inactive: 0.092

Q: HK1 isoform 2 (UniProt P19367) was tested. Which log2 fold change did it give?
A: inactive: 0.016

Q: Which log2 fold change does the source give for HLTF (UniProt Q14527) here?
A: inactive: 0.028

Q: HIST2H2BC (UniProt Q6DN03) was tested. Which log2 fold change did it give?
A: inactive: 0.003

Q: Which log2 fold change does the source give for HSP90AA4P (UniProt Q58FG1) here?
A: inactive: -0.101
